Laboratory results published in the supplement of paper PMC4683952.
This is one part of the list. Cut-off read from the data, not from the text of the source: active = 2 or more and inactive = the rest. Single values are uncertain here, since repeats match poorly.

Each compound was assayed on Lgr5 (MarsCy1-Lgr5-EGFP, U2OS) (assay: cell-surface Lgr5 expression (SCi1 fluorescence, background-subtracted) relative to WT DMSO (fold of DMSO control); higher = more Lgr5 at the plasma membrane). Details: U2OS MarsCy1-Lgr5-EGFP stable; treatment time: overnight; library: ActiProbe-5K (TimTec); 25 µM.

Row | Structure (SMILES) | cell-surface Lgr5 expression
1 | C12([C@@H]([C@@]1(C#N)C#N)C(=O)C13CC4CC(C1)CC(C3)C4)CCCCCC2 | inactive: 1.12
2 | CCOc1ccc(C2C(C#N)=C(N)OC3=C2C(=O)CC(C)(C)C3)cc1OCC (stereo not given) | inactive: 1.29
3 | Cc1ccc(C)c(/N=C\c2cc3c(cc2[N+](=O)[O-])OCO3)c1 | inactive: 1.01
4 | C=CCn1c(S)nnc1-c1ccc(Cl)cc1Cl | inactive: 1.41
5 | Nc1ccc(Br)c2cccnc12 | inactive: 0.946
6 | Cc1cc(NS(=O)(=O)c2ccc(Br)cc2)no1 | inactive: 1.17
7 | c1ccc(CCn2c(CSc3nc4ccccc4o3)nc3ccccc32)cc1 | inactive: 0.856
8 | OCCCN(CC(O)COc1ccccc1)CC(O)COc1ccccc1 (stereo not given) | inactive: 1.25
9 | O=C(CC1NCCNC1=O)OCC1CCCO1 (stereo not given) | inactive: 0.978
10 | Cc1nc2ccccn2c1-c1csc(N)n1 | inactive: 1.27
11 | CC(C)(C)C1CCC2(CC1)N[C@H](C(=O)O)CS2 (stereo not given in full) | inactive: 1.24
12 | Cc1ccsc1C1CC(=O)Nc2c1c(=O)nc1c(C)cccn21 (stereo not given) | inactive: 1.01
13 | CCc1ccc(-c2noc3ncnc(NC)c23)s1 | inactive: 0.976
14 | Cl.NCC(=O)c1cccs1 | inactive: 1.18
15 | O=Cc1ccc(N2CCCC2)o1 | inactive: 1.09
16 | O=C(O)Cn1cc([N+](=O)[O-])cn1 | inactive: 1.25
17 | N#C/C(=C1\CCCN1)c1nnc2n1CCCCC2 | inactive: 0.926
18 | CC(C)N1CC2=C(OC(N)=C(C#N)C2c2cccs2)/C(=C/c2cccs2)C1 (stereo not given) | inactive: 0.93
19 | Brc1ccc2ncnc(Nc3ccc4c(c3)OCCO4)c2c1 | inactive: 0.391
20 | CNC(=O)C12CC3CC(CC(C3)C1)C2 | inactive: 1.28
21 | Cc1cc(O)c(C(C)(C)c2c(O)cc(C)cc2C(C)(C)C)c(C(C)(C)C)c1 | inactive: 1.05
22 | CCOC(=O)c1n[nH]c2cc(C)nn2c1=O | inactive: 0.971
23 | O=S(=O)(Nn1cnnc1)c1ccccc1 | inactive: 1.2
24 | Cn1c(=O)c2c(nc(Sc3ncnn3CC(=O)NC(C)(C)C)n2C)n(C)c1=O | inactive: 1.33
25 | C(=N/N1CCN(C2c3ccccc3-c3ccccc32)CC1)/c1cccs1 | inactive: 0.988
26 | OC(c1nnc(S)n1-c1ccccc1)C(O)c1nnc(S)n1-c1ccccc1 (stereo not given) | inactive: 1.55
27 | CCN(CC)NC(=S)NC1CCCCC1 | inactive: 1.21

Row | Structure (SMILES) | cell-surface Lgr5 expression
28 | O=[N+]([O-])c1ccc(C2NNC(=S)S2)cc1 (stereo not given) | inactive: 1.05
29 | Cn1c(S)nnc1-c1ccco1 | inactive: 0.963
30 | O=S(=O)(c1ccc(F)cc1)N1CCN(c2ncccn2)CC1 | inactive: 1.28
31 | Oc1ccnc(C(F)(F)F)n1 | inactive: 0.954
32 | OC(CNC1CCCCC1)CSCC(O)CNC1CCCCC1 (stereo not given) | inactive: 1.8
33 | Fc1ccc(OCc2nc(-c3ccncc3)no2)c(F)c1 | inactive: 0.957
34 | N#Cc1c(SCc2ccc(Cl)nc2)nsc1SCc1ccc(Cl)nc1 | inactive: 0.878
35 | O=C(NCc1ccco1)N1CCOCC1 | inactive: 1.06
36 | Cc1ccc(C2=NNC(c3ccccc3)=Nc3ccccc32)cc1 | inactive: 1.53
37 | C1=NC(Cc2cccc3ccccc23)NC1.Cl (stereo not given) | inactive: 1.16
38 | Cc1ccc(/C=N/NC(=O)c2ccoc2C)o1 | inactive: 0.989
39 | CC1(C)CC2(CC(C)(C)N1)OC(=O)N(CCN1C(=O)OC3(CC(C)(C)NC(C)(C)C3)C1(C)O)C2(C)O (stereo not given) | inactive: 1.5
40 | CNC(=S)Nc1ccc(F)cc1 | inactive: 1.14
41 | CCCCc1nc2[nH]nc(N)c2c2c1CCC2 | inactive: 1.25
42 | CS(=O)(=O)NCCc1c[nH]c2ccc(Cl)cc12 | inactive: 0.911
43 | N#CC12C(N)=NC3(OCCO3)C1(C#N)C2c1ccco1 (stereo not given) | inactive: 1.05
44 | CC1=C(Cl)c2ccc(Cl)cc2S1(=O)=O | inactive: 1.16
45 | CSc1nc2c(cc1C#N)CCCCC2 | inactive: 1.27
46 | Cc1nn(C)cc1-c1nnc(C23CC4CC(CC(C4)C2)C3)o1 | inactive: 1.28
47 | CCOC(=O)C1=C(C)NC2=C(C(=O)CC(C)(C)C2)C1c1ccc(C)s1 (stereo not given) | inactive: 1.12
48 | CC(C)n1cc(NC(=O)Cn2cc([N+](=O)[O-])cn2)cn1 | inactive: 0.954
49 | C#CC(C)(C)N1CC(C)C(=O)CC1C (stereo not given) | inactive: 1.16
50 | Fc1cc(F)c(F)c(OCc2nc(-c3ccncc3)no2)c1F | inactive: 0.805
51 | NC(=O)c1c(NC(=O)C2CCCO2)sc2c1CCCC2 (stereo not given) | inactive: 0.945
52 | c1ccc2[nH]c(C3CCCN3)nc2c1 (stereo not given) | inactive: 1.17
53 | O=C(NCCC1=CCCCC1)C(=O)NC1CCCCC1 | inactive: 1.26
54 | CC(=C/c1ccco1)/C=N/n1cnnc1 | inactive: 1.03

Some of the entries above, reformatted:

| Row | Structure (SMILES) | cell-surface Lgr5 expression |
| --- | --- | --- |
| 42 | CS(=O)(=O)NCCc1c[nH]c2ccc(Cl)cc12 | inactive: 0.911 |
| 43 | N#CC12C(N)=NC3(OCCO3)C1(C#N)C2c1ccco1 (stereo not given) | inactive: 1.05 |
| 44 | CC1=C(Cl)c2ccc(Cl)cc2S1(=O)=O | inactive: 1.16 |
| 45 | CSc1nc2c(cc1C#N)CCCCC2 | inactive: 1.27 |

Following part

Row | Structure (SMILES) | cell-surface Lgr5 expression
55 | CCOC(=O)C1CN(C2CCCCC2)C(=O)C1=O (stereo not given) | inactive: 1.01
56 | Cc1c(C#N)c(N)n(CC2CCCO2)c1C (stereo not given) | inactive: 0.918
57 | O=C(/C=C/c1ccc(Cl)c(Cl)c1)c1ccc2c(c1)OCO2 | inactive: 1.33
58 | N#Cc1cc2nc3ccccn3c2cc1C#N | inactive: 1.03
59 | Cc1c(C)c2c(C)n[nH]c2oc1=O | inactive: 0.977
60 | Cc1nnc(SCc2c(C)cc(C)c(CSc3nnc(C)s3)c2C)s1 | inactive: 1.03
61 | CC(C)n1cc(C=O)c2ccc(F)cc21 | inactive: 0.406
62 | O=C(O)C1=CC(Cl)=C(Cl)[C@H](O)[C@@H]1O | inactive: 1.33
63 | C1(C(C\2(C(O1)(CCC2=C(/C)C)C)C)Cc1ncccc1)=O (stereo not given) | inactive: 1.09
64 | CCC(C)(C#CCN1CCCCC1)OCCC#N (stereo not given) | inactive: 1.05
65 | C=C(C)CC1NC2CC(C)(C)C1c1c(Br)ccc(Br)c12.Cl (stereo not given) | inactive: 1.18
66 | O/N=C1\c2ccccc2-c2nc3ccccc3nc21 | inactive: 1.24
67 | COC(=O)C12CC3(C(=O)OC)CC(C(=O)OC)(CC(C(=O)OC)(C1)C3=O)C2=O | inactive: 1.16
68 | C/C=C/C1OC(=O)C2(CCCCC2)C(=O)C1(C)C (stereo not given) | inactive: 1.1
69 | CCn1nc(N)c2c(C)c(Cl)c(C)nc21 | inactive: 1.22
70 | O=C(Nc1nc(-c2ccc(Br)s2)cs1)c1ccnn1C(F)F | inactive: 0.637
71 | O=C1C=CC(=O)N1C1CCCCC1 | inactive: 1.29
72 | CSC1=NC(C)(C)CC2=C(C)C=C(C)C3(CC(C)(C)N=C3SC)C2=C1 (stereo not given) | inactive: 1.22
73 | CC1(C)Nc2ccccc2-c2c1ss/c2=N/c1cccc(Cl)c1 | inactive: 1.45
74 | COc1ccc2c(c1)-c1c(ssc1=S)C(C)(C)N2 | inactive: 0.538
75 | CCn1cc(Cn2cc(NC(=O)CCn3nc(C(F)(F)F)c(Cl)c3C)cn2)cn1 | inactive: 1.1
76 | CC1CC(C)(C)Nc2ccc(O)cc21 (stereo not given) | active: 2.3
77 | COc1cc2c(cc1OC)/C(=C\c1cc(OC)c(OC)c(OC)c1)C(=O)N2 | inactive: 1.23
78 | Cc1c(C2NC(N)=Nc3nc4ccccc4n32)c2ccccc2n1C (stereo not given) | inactive: 1.29
79 | CC(C)COC(=O)CNc1n[nH]c(=O)[nH]c1=O | inactive: 1.19
80 | Fc1ccc(OCc2nc(-c3ccc(Br)o3)no2)c(F)c1 | inactive: 1
81 | Fc1ccc2[nH]c3nc4ncc(Br)cc4nc3c2c1 | inactive: 1.23

Row | Structure (SMILES) | cell-surface Lgr5 expression
82 | Fc1ccc(/C=N\N2CCN(C3c4ccccc4-c4ccccc43)CC2)cc1 | inactive: 1.02
83 | COC(=O)c1c(NC(=O)CCC(=O)O)sc2c1CCC2 | inactive: 0.814
84 | C(=N\Nc1nnn[nH]1)/c1c2ccccc2cc2ccccc12 | inactive: 1.55
85 | O=C(Nc1nncs1)c1ccco1 | inactive: 1.22
86 | CN(C)c1ccc(S(C)(=O)=O)cc1 | inactive: 1.06
87 | [O-][n+]1onc2cc(F)c(F)cc21 | inactive: 0.916
88 | N#C/C(=C/c1ccc2c(c1)OCO2)c1ccc(Cl)cc1Cl | active: 2.54
89 | Clc1ccc2c(c1)nc(SCc1ccon1)n1nccc21 | inactive: 0.906
90 | N#Cc1c(SCC(=O)NC23CC4CC(CC(C4)C2)C3)sc2c(=O)[nH]c(=O)[nH]c12 | inactive: 1.45
91 | Fc1cc(F)c(C2SCCN2C(=S)NCCc2ccccc2)c(F)c1 (stereo not given) | inactive: 1.39
92 | CC(NCc1cccs1)C12CC3CC(CC(C3)C1)C2 (stereo not given) | inactive: 1.11
93 | CCCCCCCCCCCCN1CNC(=S)NC1 | inactive: 1.08
94 | CN1CCOCC1.N#Cc1c(S)[nH]c(C(F)(F)F)cc1=O | inactive: 1.11
95 | Cn1cc(Cn2cc(Cl)c([N+](=O)[O-])n2)cn1 | inactive: 1.33
96 | O=C(C1CC12CCC2)N1CCc2ccccc21 (stereo not given) | inactive: 1.52
97 | CCOC(=O)c1c(N)sc2c1CCC2 | inactive: 1.04
98 | Cc1nnc(SCC(=O)Nc2sc3c(c2C#N)CCC3)s1 | inactive: 1.13
99 | N=C(N)NS(=O)(=O)c1ccc(N)cc1 | inactive: 1.09
100 | CCn1c(Cl)nc2c1c(=O)n(C)c(=O)n2C | inactive: 1.14
101 | CN1c2ccccc2Oc2nnc(N3CCN(C(c4ccccc4)c4ccccc4)CC3)cc21 | inactive: 1.04
102 | N#Cc1c(SCC(N)=O)sc2c(O)nc(=O)[nH]c12 | inactive: 1.26
103 | N#Cc1c(SCc2ccccc2F)nsc1SCc1ccccc1F | inactive: 0.774
104 | c1ccc(-c2noc(CSc3nc(-c4ccccc4)c(-c4ccccc4)[nH]3)n2)cc1 | inactive: 1.16
105 | C=C(/C=C/C(=C\C)N1N=C(C)/C(=C\c2ccc(-c3ccc4c(c3)C(=O)NC4=O)o2)C1=O)CC | inactive: 1.26

As entered above.
N=C(N)NS(=O)(=O)c1ccc(N)cc1 | cell-surface Lgr5 expression: inactive: 1.09
COC(=O)c1c(NC(=O)CCC(=O)O)sc2c1CCC2 | cell-surface Lgr5 expression: inactive: 0.814
